# Measurements as given in PubChem BioAssay (Tox21).
# The chains behind the UniProt entries cited, without tags or fusion partners. Where a name states a change or a piece, a line headed by the entry shows the natural chain unless it says otherwise.
# UniProt P19793: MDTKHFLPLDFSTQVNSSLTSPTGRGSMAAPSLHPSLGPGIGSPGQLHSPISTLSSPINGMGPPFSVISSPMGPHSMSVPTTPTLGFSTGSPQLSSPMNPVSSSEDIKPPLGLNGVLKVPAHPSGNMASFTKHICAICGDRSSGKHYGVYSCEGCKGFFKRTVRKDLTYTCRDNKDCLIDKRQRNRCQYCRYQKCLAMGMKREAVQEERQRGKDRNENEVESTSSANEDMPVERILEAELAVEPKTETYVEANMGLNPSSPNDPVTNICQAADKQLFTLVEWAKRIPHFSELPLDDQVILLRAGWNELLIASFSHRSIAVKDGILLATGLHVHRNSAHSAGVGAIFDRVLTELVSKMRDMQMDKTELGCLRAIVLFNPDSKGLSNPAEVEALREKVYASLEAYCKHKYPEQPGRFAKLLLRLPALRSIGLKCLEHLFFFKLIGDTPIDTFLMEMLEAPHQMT
# Several values for one entry are separate records, joined by “and”; a condition that tells them apart may be missing. Where a call stands in place of a potency, no number is given. Equal values may be shown once. Inconclusive means that the source gave no clear call. Such entries were picked first, then a sample of the others. For some of these results: Potencies of inconclusive entries are doubtful fits and often do not repeat. Activity calls are given as the source filed them. Unless noted, calls follow the shape of the dose curve; as a rule, active = well fitted curve in the direction sought with a large enough effect in the repeat runs; inconclusive = weak or mixed curves; inactive = no such curve, though single readings can be large; an effect the other way counts as inactive or inconclusive.
# Legend:
# [1] = target: Retinoic acid receptor RXR-alpha (Homo sapiens) (UniProt P19793); assay: qHTS assay to identify small molecule agonists of the RXR signaling pathway (AID 1159527; calls by dose curve; also: nearly all actives have a fitted effect of over 35% in size; also: potency is read from the fitted curve at half-maximal effect); details: HEK293T RXRa-UAS-bla, beta-lactamase ratio, 16 h; activation: at 76.8 µM (top of the series) unless noted
# How it was run: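 Fluorescence ratio readout (460 vs 530 nm) from GeneBLAzer RXR-alpha HEK 293T cells after 16 hr compound treatment; cells seeded 5 hr beforehand in low-serum, charcoal-stripped medium.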
# [2] = qHTS assay to identify small molecule antagonists of the retinoic acid receptor (RAR) signaling pathway (AID 1159552; also: nearly all actives have a fitted effect of over 50% in size; also: potency is read from the fitted curve at half-maximal effect)
# How it was run: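 Using a RARE-driven luciferase construct in C3RL4 cells, retinol at 1 uM final provided the agonist stimulus while compounds were co-applied. After 6 hours at 37 C, luminescence was recorded to flag inhibitors of retinol signaling.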
# [3] = qHTS assay to identify small molecule antagonists of the retinoid acid receptor (RAR) signaling pathway - cell viability counter screen (AID 1159551); also: nearly all actives have a fitted effect of over 35% in size; also: potency is read from the fitted curve at half-maximal effect
# How it was run: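 C3RL4 cells were seeded overnight at 37 C, then treated with compounds plus 1 uM (final) retinol for 6 h at 37 C. Viability was read as ATP by CellTiter-Glo luminescence after 30 min at room temperature.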
# [4] = qHTS assay to identify small molecule agonists of the retinoic acid receptor (RAR) signaling pathway (AID 1159553); details: C3RL4 RARE luciferase reporter, agonist, 6 h; activation: at 73.3 µM (top of the series) unless noted; also: potency is read from the fitted curve at half-maximal effect
# How it was run: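 C3RL4 cells carrying a RARE luciferase reporter were plated overnight at 37 C, then exposed to compounds in DMSO for 6 hr at 37 C and 5% CO2. Luminescence was read 30 min after luciferase reagent addition at room temperature.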
# [5] = qHTS assay to identify small molecule antagonists of the estrogen related receptor (ERR) signaling pathway - cell viability counter screen (AID 1224818);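 also: viability measured after 17.5 h of compound exposure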
# How it was run: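 ERR reporter cells plated 6 h at 37 C/5% CO2, then compounds in DMSO pin-transferred and incubated 17.5 h at 37 C. Viability read as CellTiter-Fluor fluorescence after 30 min at 37 C.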
# [6] = qHTS assay to identify small molecule antagonists of the estrogen related receptor signaling pathway with the pleiotropic PPARgamma coactivator (PGC) cell viability counter screen (AID 1224822)
# How it was run: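 PGC/ERR cells were seeded at 2,000 cells/well, rested 6 h at 37 C/5% CO2, then given compounds in DMSO by pin tool and incubated 17.5 h at 37 C. Viability came from CellTiter-Fluor fluorescence after 30 min.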
smiles,measurement,setting,value
CCCCCCCCCCC,Potency,[1],active: 12.3 µM
same,Potency,[2],inactive
CCOC(=O)[C@@H](C)Oc1ccc(Oc2nc3ccc(Cl)cc3o2)cc1,activation,[1],inconclusive: -31.2%
same,Potency,[3],inactive
same,activation,[4],inconclusive: 7.17% [phenotype inactive]
CCC(C)(C)C1CCC(OC)CC1 (centres undefined),Potency,[1],inactive
same,Potency,[3],"inconclusive: 77 µM [rising, partial curve, poor fit]"
O=C1CCCCCO1,Potency,[1],"inconclusive: 13.9 µM [activator, full curve]"
same,Potency,[3],"inconclusive: 27.5 µM [rising, single point]"
CC(=O)Nc1nnc(S(N)(=O)=O)s1,activation,[1],inconclusive: 18.3%
same,Potency,[2],inactive
CC(=O)Nc1ccc(N)cc1,Potency,[1],"inconclusive: 7.87 µM [activator, full curve]"
same,Potency,[2],"inconclusive: 69.6 µM [inhibitor, partial curve, poor fit]"
O=C(O)c1cc(O)c(O)c(O)c1,Potency,[1],inactive
same,Potency,[3],"inconclusive: 55 µM [cytotoxic, partial curve]"
same,Potency,[4],inconclusive: 77.7 µM [inhibitor]
CC1=C(C)S(=O)(=O)CCS1(=O)=O,Potency,[1],"inactive and inconclusive: 38.9 µM [activator, partial curve, poor fit]"
same,Potency,[3],inactive
COc1cc(CCC(C)=O)ccc1O,Potency,[1],"inconclusive: 19.5 µM [activator, partial curve]"
same,Potency,[2],inactive
NCCCN1CCOCC1,activation,[1],inconclusive: -6.8%
same,Potency,[3],inactive
CCC(C)c1cc(C(C)(C)C)c(O)c(C(C)(C)C)c1 (centres undefined),Potency,[1],active: 0.958 µM
same,Potency,[2],"inconclusive: 4.24 µM [inhibitor, full curve]"
C=CC(=O)OCCOC1C2CCC1C1CC=CC12 (centres undefined),activation,[1],inconclusive: -20.6% [at 15.8 µM]
same,Potency,[2],"inconclusive: 3.66 µM [inhibitor, partial curve, poor fit]"
COc1c(N2CCNC(C)C2)c(F)cc2c(=O)c(C(=O)O)cn(C3CC3)c12 (centres undefined),Potency,[1],inactive
same,Potency,[3],inactive
same,Potency,[2],"inconclusive: 9.44 µM [inhibitor, partial curve]"
FC(F)(F)C(Cl)(Cl)Cl,Potency,[1],inactive
same,Potency,[3],inactive
CC[N+](CC)(CC(=O)Nc1c(C)cccc1C)Cc1ccccc1 (tested in a mixture with another compound),Potency,[1],inactive
same,Potency,[3],inactive
CC(=O)OCC(=O)[C@@]12N=C(C)O[C@@H]1C[C@H]1[C@@H]3CCC4=CC(=O)C=C[C@]4(C)[C@H]3[C@@H](O)C[C@@]12C,Potency,[1],"inconclusive: 9.77 µM [activator, partial curve, poor fit] and inactive"
same,Potency,[2],"inconclusive: 17.2 µM [inhibitor, full curve] and inconclusive: 335 nM [inhibitor, full curve]"
COC(=O)[C@H]1[C@H]2C[C@@H]3c4[nH]c5cc(OC)ccc5c4CCN3C[C@H]2C[C@@H](OC(=O)COc2ccc(OC)cc2)[C@@H]1OC,Potency,[1],"inconclusive: 26.8 µM [rising, single point]"
same,Potency,[2],inactive
CSc1cnccn1,Potency,[1],inactive
same,Potency,[2],inactive
CCCCC1CCCCC(=O)O1 (centres undefined),activation,[1],inconclusive: 12.8%
same,Potency,[3],inactive
same,Potency,[4],inactive
CCOC(=O)c1cnc2c(cnn2CC)c1NN=C(C)C,Potency,[1],inactive
same,Potency,[3],inactive
same,Potency,[5],inactive
same,Potency,[6],inactive
O=C(c1ccc(O)cc1)c1ccc(O)c(O)c1O,Potency,[1],inactive
same,Potency,[3],inactive
same,activation,[4],inconclusive: 10.7% [phenotype inactive] [at 94.8 µM]
COc1ccc2c(c1)c1c3n2CCN(C)C3=NCC1,Potency,[1],inactive
same,Potency,[3],inactive
CC(C(=O)O)c1ccc(C(=O)c2ccccc2)s1 (centres undefined),Potency,[1],"inconclusive: 15.1 µM [rising, partial curve, poor fit]"
same,Potency,[3],inactive
same,Potency,[4],active: 8.41 µM
N#C[C@@H]1CC(F)(F)CN1C(=O)CNC1CC2CCC(C1)N2c1ncccn1 (some centres undefined),Potency,[1],"inconclusive: 11 µM [activator, partial curve, poor fit]"
same,Potency,[3],inactive
O=C1CCCC(=O)O1,Potency,[1],inactive
same,Potency,[3],inactive
same,activation,[4],inconclusive: -2.81% [phenotype inactive]
CC(C)=CCC[C@H](C)CCO,Potency,[1],"inconclusive: 19.5 µM [activator, partial curve]"
same,Potency,[3],"inconclusive: 0.0031 µM [rising, full curve, poor fit]"
CC(=O)OC(C)OC(C)=O,Potency,[1],active: 2.01 µM
same,Potency,[3],inactive
same,Potency,[4],inactive

# 3 records picked at random from those above:
smiles,measurement,setting,value
CC(C(=O)O)c1ccc(C(=O)c2ccccc2)s1 (centres undefined),Potency,[3],inactive
CCCCCCCCCCC,Potency,[1],active: 12.3 µM
CC(C(=O)O)c1ccc(C(=O)c2ccccc2)s1 (centres undefined),Potency,[4],active: 8.41 µM
